Test results published in the supplement of paper PMC3334620.
Over roughly 33,000 sequences, “E-score (-0.5 to 0.5)” has its median near -0.0059; the highest 2% begin near 0.26. Some of the results follow.

Target: T1, Cin5 (UniProt P40917)
T1 sequence: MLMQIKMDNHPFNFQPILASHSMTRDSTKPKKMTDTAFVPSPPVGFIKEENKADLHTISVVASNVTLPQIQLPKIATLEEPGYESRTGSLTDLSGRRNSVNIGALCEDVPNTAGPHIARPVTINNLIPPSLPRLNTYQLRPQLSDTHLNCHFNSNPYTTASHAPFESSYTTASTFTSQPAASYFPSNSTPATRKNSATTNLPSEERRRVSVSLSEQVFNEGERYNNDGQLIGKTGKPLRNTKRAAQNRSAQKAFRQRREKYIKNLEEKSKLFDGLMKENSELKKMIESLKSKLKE
Experiment: PBM E-score (8-mer binding enrichment) (E-score (-0.5 to 0.5)); higher = stronger / more preferred TF binding
Details: protein concentration: 100 nM; construct: GST-full length
In short: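 Each ungapped eight-base word and its reverse complement, pooled, received an E-score from the Universal PBM Analysis Suite. Underlying scans, normalised with masliner, recorded fluorescent anti-GST bound to GST-tagged yeast transcription factors. These were applied at about 100-200 nM to universal all-10-mer Agilent arrays double-stranded by primer extension.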

Row | Sequence | PBM E-score
1 | ATTGTGGC | 0.105
2 | CGTCCAGC | -0.219
3 | GCATGAGC | -0.0691
4 | ACACAGGA | -0.063
5 | CCGTAGTC | -0.167
6 | GAGCTGGC | -0.0869
7 | GAATGAGC | 0.0388
8 | GAGGACGC | -0.163
9 | AACCCTAG | 0.0154
10 | TGTCGCAA | -0.122
11 | GTCCGATA | -0.112
12 | CACGGACC | -0.0808
13 | AAAACAGC | 0.0951
14 | CACCCCCC | -0.498
15 | CCCCGGTA | -0.253
16 | ACGGAGTC | -0.026
17 | AGTATCCG | 0.0449
18 | ATATCCGA | 0.235
19 | CCCTGGGC | -0.308
20 | CAAACTTC | 0.165
21 | AGGTACTA | 0.0435
22 | CCCCCCCC | -0.5
23 | CCGGGGCC | -0.242
24 | TCGAGACA | -0.0366
25 | ATTCCTGA | -0.023

Rewritten in CSV form: part of the list above
Row,Sequence,PBM E-score
1,ATTGTGGC,0.105
6,GAGCTGGC,-0.0869
8,GAGGACGC,-0.163
19,CCCTGGGC,-0.308
21,AGGTACTA,0.0435

Further results:

Row | Sequence | PBM E-score
26 | AAATGACA | 0.175
27 | CGCGGAGA | 0.0927
28 | CTGCTACA | 0.0535
29 | CCGTGTCA | -0.205
30 | TCGACTAA | 0.0548
31 | AAGGATCG | 0.00025
32 | CCCACAAG | -0.0905
33 | CAAGGAGC | -0.0695
34 | AATTAATG | 0.221
35 | CATGACTA | -0.0231
36 | ACCTATCC | -0.0511
37 | CACTTAGC | 0.0334
38 | ACTTGTGG | 0.0113
39 | CCTGTTCA | -0.194
40 | AAATTTTC | -0.0143
41 | ATAATAGC | 0.0795
42 | CAACGCAC | -0.0234
43 | CTAGTCTC | -0.0846
44 | TACACGTA | 0.127
45 | AATGAGGT | 0.103
46 | CCCTACAC | -0.0428
47 | CGTCATCA | 0.241
48 | CTGTGAGC | -0.0369
49 | GGAGGATA | -0.0068
50 | ATCTCGAA | 0.0759

Row | Sequence | PBM E-score
51 | ATTTCTGG | 0.0764
52 | AGCAGGCC | -0.259
53 | AATAGTCA | 0.0413
54 | AACGTCTC | 0.0617
55 | CTACGCTA | -0.113
56 | ATTTAAGG | -0.0712
57 | TGAGGGAA | -0.0591
58 | AATCATGG | -0.0172
59 | ATTAATAA | 0.336
60 | ATCTCCGG | 0.154
61 | AACGAGCA | -0.0287
62 | ATCCTATG | -0.0109
63 | GCTCCAAA | -0.176
64 | ACCTTCCA | -0.0697
65 | AGGGCTTA | -0.0648
66 | ACGACCTA | -0.016
67 | AATTCGCT | 0.325
68 | ATGCAGTG | 0.0118
69 | AGCGTGAG | 0.0199
70 | AATGTGGT | 0.16
71 | CGGACTCA | -0.0444
72 | AATAACCC | 0.174
73 | TAACAAGA | -0.0483
74 | AAATACAG | 0.119
75 | GGACTCCC | -0.345

Row | Sequence | PBM E-score
76 | GATATGAC | 0.0911
77 | AGACCTAA | -0.0766
78 | CAATCCCC | 0.0168
79 | TAATACGA | 0.12
80 | TCTAGAAA | 0.00706
81 | AGCGCTAA | 0.123
82 | CTCTATAC | -0.0333
83 | ATTAGTGG | 0.219
84 | AAGTTAAG | -0.041
85 | ACCGTTTA | -0.034
86 | CATTAGGC | -0.266
87 | ATACTCAA | 0.204
88 | CTCCAACA | 0.0437
89 | CATACGAC | -0.0512
90 | AGTTCAAC | 0.18
91 | CATGCCGA | 0.0868
92 | AGTCTACA | -0.26
93 | CAACTGTG | -0.0932
94 | AGGGGGCG | -0.302
95 | CCCTAAAC | -0.166
96 | ATAGAATG | 0.209
97 | CGCGAGCA | 0.0699
98 | TGCTCGAA | -0.0801
99 | GTTTCTGA | 0.0462
100 | AGACTAAC | 0.0216

Row | Sequence | PBM E-score
101 | ACCGTAAC | -0.0293
102 | AACCAGAT | 0.0426
103 | CGGGTCTC | -0.214
104 | GGGAGTTA | -0.00691
105 | CGGACCAA | 0.0118
106 | CTAAACGC | 0.0872
107 | GCATGGGC | -0.151
108 | TACCACCA | -0.0388
109 | ATTTCTGA | -0.0921
110 | AAGCCCCC | -0.412
111 | GGGGCAAC | -0.124
112 | ATACTTAG | 0.0186
113 | GGCCTGCA | -0.335
114 | AGTTTTCG | 0.0694
115 | CCCTCATA | 0.012
116 | ACCTATAC | 0.0459
117 | ATTCAACG | 0.0816
118 | ATTGTAAA | 0.181
119 | ATGGACTC | 0.00164
120 | TATAGATA | 0.176
121 | CTGGGTCA | -0.0951
122 | AGTGGTGG | -0.049
123 | CCCTGTTA | 0.108
124 | GGCGGCAC | -0.0185
125 | GAGCTGTA | -0.117

Row | Sequence | PBM E-score
126 | CATGTGCG | 0.0842
127 | AAATAAAT | 0.246
128 | CGTCACTC | -0.173
129 | TCACGCAA | 0.145
130 | AGGGGCTA | -0.16
131 | CGTGCCAA | -0.103
132 | ATCTTTCG | 0.0728
133 | AACAGTGG | 0.0147
134 | CCTACCCC | -0.0989
135 | GATAGTAC | 0.0953
136 | CTGCCGAC | -0.0835
137 | AAATCAGA | -0.0108
138 | ACATAAAA | 0.22
139 | CAACCTGG | -0.00955
140 | CCCCGGAA | -0.0533
141 | ACGTCGAT | 0.105
142 | ACTAACTC | -0.124
143 | AGACGGGA | -0.0668
144 | ATTCTCCA | 0.101
145 | ACTTGTCT | -0.0498
146 | CCACGCCC | -0.266
147 | CCCCCACA | -0.446
148 | ACGTTTGC | -0.0322
149 | ACAGACAT | -0.00061
150 | ACCAATCA | 0.16

Row | Sequence | PBM E-score
151 | GTCTTTCA | -0.207
152 | AGGGCCCG | -0.202
153 | TACCATGA | 0.046
154 | CTGATAAG | 0.11
155 | ACACTTTA | 0.133
156 | CAATTAGC | 0.0636
157 | CCGTCATA | -0.03
158 | AAGCGGAC | 0.0173
159 | GACCGCGC | -0.016
160 | ATTCGCTG | 0.0687
161 | AACCGCTT | 0.0104
162 | ATCGGGAG | -0.115
163 | CGAGAAAC | -0.0776
164 | GCGAAGTA | 0.0807
165 | ACCGGGGC | -0.136
166 | CACGGTGG | 0.0279
167 | CTTCACAA | -0.121
168 | ATCGACAC | 0.00721
169 | ACGGTGAC | -0.127
170 | CCACGCTC | -0.237
171 | ACAATGAG | -0.0282
172 | GCTGGTCA | -0.194

Looked up above.
PBM E-score with CCGTCATA is entered as -0.03
PBM E-score with ACAATGAG is entered as -0.0282
PBM E-score with ACGGTGAC is entered as -0.127
PBM E-score with ACCGGGGC is entered as -0.136
PBM E-score with CTTCACAA is entered as -0.121
PBM E-score with CGAGAAAC is entered as -0.0776
